Measured values reported in patent US11174242B2, “Heteroaryl compounds and their use” (Minoryx Therapeutics S.L., priority 2016, dated 2021).
Where a chain is given by its changes, count along the chain named. At least one structure is not confirmed: it was looked up by name or label, or the drawing left a doubt.

Experiments:
[1] = biological target: T1, β-glucocerebrosidase Wild Type (WT) (Homo sapiens, UniProt P04062); experiment: β-glucocerebrosidase activity enhancement, Wild Type (WT); type: cell-based; details: increase in enzyme activity vs non-treated cells
T1 construct: endogenous in cells
T1 sequence (P04062 40-536): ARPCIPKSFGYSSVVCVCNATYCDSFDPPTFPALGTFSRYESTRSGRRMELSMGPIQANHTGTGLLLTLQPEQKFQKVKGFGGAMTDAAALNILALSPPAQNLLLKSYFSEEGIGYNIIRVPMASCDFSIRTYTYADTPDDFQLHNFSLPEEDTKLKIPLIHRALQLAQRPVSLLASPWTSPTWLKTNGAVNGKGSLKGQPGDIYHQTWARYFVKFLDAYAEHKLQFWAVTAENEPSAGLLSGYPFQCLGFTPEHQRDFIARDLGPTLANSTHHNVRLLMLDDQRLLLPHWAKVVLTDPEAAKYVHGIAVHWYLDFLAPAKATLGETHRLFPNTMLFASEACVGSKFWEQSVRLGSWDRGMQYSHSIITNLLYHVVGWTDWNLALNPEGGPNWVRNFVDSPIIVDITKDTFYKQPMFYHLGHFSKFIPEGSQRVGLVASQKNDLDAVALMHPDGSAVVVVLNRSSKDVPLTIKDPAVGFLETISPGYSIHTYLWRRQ
Procedure: (§1) Fibroblasts were seeded at 5×10^3 cells per well in 96-well cell culture plates (Corning, N.Y., USA) in Dulbecco's Modified Eagle's Media (DMEM) supplemented with 10% of fetal bovine serum (FBS), 1% penicillin/streptomycin (P/S) (Thermo Fisher Scientific, Waltham, Mass., USA) and grown at 37° C., 5% CO2 overnight for cell attachment. Subsequently, cells were incubated in the absence or presence of the compounds at the desired concentration for 4 days. After incubation, cells were washed twice with phosphate-buffered saline (PBS) and enzyme activity assay was performed.
(§2) β-glucocerebrosidase activity in intact cultured cells was measured by using 4-methylumbelliferyl-β-D-glucopyranoside substrate (Apollo Scientific, UK). Briefly, cells were incubated with 4-MU-β-D-glucopyranoside in 0.1 M acetate buffer pH=4 at 37° C. for 1 hour. […] The liberated 4-MU was measured on a GloMax Discover plate reader (Promega, Madison, Wis., USA) with and excitation at 340 nm and emission at 460 nm. Enzyme activities were expressed in treated cells as X-fold increase in comparison with non-treated cells (X=1 represents no enhancement).
The following compounds listed in Table 2 were purchased (from Enamine, Princeton, Asinex, Vistas-M, and OSSK_541352) and tested in the assay as described above.

[2] = biological target: T2, β-glucocerebrosidase, p.L444P mutation (GM08760A fibroblasts) (Homo sapiens, UniProt P04062, L483P); experiment: Enhancement of β-glucocerebrosidase activity measured in Gaucher disease fibroblasts (L444P); type: cell-based; details: increase in enzyme activity vs non-treated cells; GBA fibroblasts bearing L444P; concentrations between 6 and 50 μM; 4 days incubation
T2 construct: host or cells: human Gaucher patient fibroblasts GM08760A, homozygous L444P
T2 sequence (P04062 40-536 L483P): T1 sequence (P04062 40-536) with L444P
Procedure: Enhancement of β-Glucocerebrosidase Activity Measured in Gaucher Disease Fibroblasts Materials
Human fibroblasts from a patient with Gaucher disease homozygous for p.L444P mutation (GM08760A) were purchased from Coriell Institute for Medical Research (Camden, N.J., USA).
as §1
as §2, with “enhancement). […]” for “enhancement).”

How did the “Activity Wild Type (WT)” value [1] turn out when `Cc1cccc(Nc2nc(N)nc(CN(C)Cc3ccccc3)n2)c1` [Example 7, 6-((Benzyl(methyl)amino)methyl)-N^2-m-tolyl-1,3,5-triazine-2,4-diamine] was run?
Its value is “B (Increase in comparison with non-treated of >1.7-2.0 fold is shown as B)”.

And the “Activity L444P” value [2]?
The value was “B (Increase in comparison with non-treated of >1.7-2.0 fold is shown as B)”.
